Test results published in paper PMC11112123.
These are yes or no findings as the source states them, for the method shown. Binding seen in cells or lysates may run through a third protein.

Chains of the proteins cited; added tags and fusions are not shown.
UniProt Q96EX3: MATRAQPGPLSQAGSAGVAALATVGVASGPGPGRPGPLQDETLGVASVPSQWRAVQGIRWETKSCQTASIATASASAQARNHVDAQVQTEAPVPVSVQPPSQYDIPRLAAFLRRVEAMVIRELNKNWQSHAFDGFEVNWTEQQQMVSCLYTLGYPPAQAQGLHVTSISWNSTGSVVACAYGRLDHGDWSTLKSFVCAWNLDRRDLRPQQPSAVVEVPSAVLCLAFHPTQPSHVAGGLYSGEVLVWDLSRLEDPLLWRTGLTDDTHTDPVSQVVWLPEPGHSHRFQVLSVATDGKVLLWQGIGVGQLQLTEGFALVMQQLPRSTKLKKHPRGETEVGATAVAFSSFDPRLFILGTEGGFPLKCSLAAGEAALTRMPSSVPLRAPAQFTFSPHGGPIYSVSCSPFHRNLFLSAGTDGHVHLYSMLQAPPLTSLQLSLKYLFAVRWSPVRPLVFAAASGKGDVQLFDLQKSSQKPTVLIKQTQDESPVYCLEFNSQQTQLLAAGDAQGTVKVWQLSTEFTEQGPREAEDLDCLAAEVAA
UniProt Q9Y4F5: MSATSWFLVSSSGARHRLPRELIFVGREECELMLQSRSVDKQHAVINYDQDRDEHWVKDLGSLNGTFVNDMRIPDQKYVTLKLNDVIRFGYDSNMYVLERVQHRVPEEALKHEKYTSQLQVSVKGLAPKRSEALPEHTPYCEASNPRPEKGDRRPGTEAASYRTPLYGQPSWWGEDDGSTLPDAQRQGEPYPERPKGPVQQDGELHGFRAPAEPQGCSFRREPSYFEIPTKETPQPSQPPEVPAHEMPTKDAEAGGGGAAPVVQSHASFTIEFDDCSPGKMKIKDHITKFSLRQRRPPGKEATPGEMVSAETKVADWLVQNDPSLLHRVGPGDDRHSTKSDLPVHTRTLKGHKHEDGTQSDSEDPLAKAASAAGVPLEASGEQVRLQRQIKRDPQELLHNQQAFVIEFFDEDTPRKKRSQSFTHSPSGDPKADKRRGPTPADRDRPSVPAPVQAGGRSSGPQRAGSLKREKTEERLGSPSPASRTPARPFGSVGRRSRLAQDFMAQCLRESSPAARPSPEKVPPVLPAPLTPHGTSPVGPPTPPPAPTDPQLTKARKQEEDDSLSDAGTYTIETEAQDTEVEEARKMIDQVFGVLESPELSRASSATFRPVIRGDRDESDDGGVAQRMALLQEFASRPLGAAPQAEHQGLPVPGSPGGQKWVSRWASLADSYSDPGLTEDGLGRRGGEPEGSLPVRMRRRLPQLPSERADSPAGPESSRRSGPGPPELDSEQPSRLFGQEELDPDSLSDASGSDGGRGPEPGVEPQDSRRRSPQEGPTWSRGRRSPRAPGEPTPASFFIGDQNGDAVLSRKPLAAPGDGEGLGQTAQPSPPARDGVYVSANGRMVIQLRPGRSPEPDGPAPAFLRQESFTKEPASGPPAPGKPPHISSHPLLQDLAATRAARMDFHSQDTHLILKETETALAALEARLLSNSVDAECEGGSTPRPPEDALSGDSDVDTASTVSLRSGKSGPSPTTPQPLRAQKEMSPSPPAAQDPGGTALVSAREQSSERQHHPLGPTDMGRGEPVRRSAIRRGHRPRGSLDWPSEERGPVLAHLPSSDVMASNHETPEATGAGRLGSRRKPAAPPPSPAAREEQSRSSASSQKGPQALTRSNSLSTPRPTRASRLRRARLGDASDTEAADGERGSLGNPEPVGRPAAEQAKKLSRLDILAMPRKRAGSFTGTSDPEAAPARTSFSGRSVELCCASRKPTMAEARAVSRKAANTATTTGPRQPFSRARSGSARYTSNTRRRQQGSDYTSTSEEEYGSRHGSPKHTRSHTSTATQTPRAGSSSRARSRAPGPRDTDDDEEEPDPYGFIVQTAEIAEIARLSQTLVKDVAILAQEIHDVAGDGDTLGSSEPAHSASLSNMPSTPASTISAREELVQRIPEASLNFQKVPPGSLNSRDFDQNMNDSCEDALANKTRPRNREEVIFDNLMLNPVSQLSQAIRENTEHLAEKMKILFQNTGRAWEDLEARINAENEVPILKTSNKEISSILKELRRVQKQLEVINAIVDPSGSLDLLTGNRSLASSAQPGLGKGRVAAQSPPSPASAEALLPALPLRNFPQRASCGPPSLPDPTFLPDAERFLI

Target: HA–WDR34 (human) (UniProt Q96EX3)
Experiment: co-IP; anti-HA immunoprecipitation from RPE1 cells (WT and WDR60 KO) expressing HA–WDR34, immunoblot; as described in Vuolo et al., 2018

binding: no binding
Substance: CEP170B (from UniProt Q9Y4F5 1-1589)
